Test results published in paper doi:10.1101/2025.02.11.636922.
These are yes or no findings as the source states them, for the method shown. For some of these results: Binding calls can cover weak binding; strength is not graded here. Sequences can lack the tags named with a protein.

Assays:
Assay in all cases: TIRF microscopy in vitro motility assay
[1] = molecular target: T1, GFP-Ncd (Drosophila melanogaster) (UniProt P20480)
T1 sequence: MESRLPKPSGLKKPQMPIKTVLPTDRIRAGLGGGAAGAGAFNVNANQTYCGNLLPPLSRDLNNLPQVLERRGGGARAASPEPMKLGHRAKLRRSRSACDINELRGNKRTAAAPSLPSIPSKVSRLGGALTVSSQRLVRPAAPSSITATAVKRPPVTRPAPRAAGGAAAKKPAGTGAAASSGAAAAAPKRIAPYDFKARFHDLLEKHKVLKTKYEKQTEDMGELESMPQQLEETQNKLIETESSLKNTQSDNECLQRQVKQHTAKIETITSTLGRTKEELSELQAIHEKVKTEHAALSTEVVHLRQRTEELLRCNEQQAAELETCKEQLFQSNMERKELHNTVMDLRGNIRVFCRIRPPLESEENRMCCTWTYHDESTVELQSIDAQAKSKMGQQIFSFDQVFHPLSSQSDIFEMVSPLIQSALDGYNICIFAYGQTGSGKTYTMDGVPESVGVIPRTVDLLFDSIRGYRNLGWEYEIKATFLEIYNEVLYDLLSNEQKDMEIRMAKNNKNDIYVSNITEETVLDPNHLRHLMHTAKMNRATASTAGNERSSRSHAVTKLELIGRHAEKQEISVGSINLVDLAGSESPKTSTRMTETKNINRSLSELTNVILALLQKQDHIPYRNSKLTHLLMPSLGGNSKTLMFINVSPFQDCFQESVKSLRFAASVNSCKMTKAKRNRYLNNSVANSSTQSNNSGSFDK

[2] = molecular target: T2, GFP-KlpA*Ncd-#2 (Drosophila melanogaster | Aspergillus nidulans) (UniProt P20480)
T2 sequence: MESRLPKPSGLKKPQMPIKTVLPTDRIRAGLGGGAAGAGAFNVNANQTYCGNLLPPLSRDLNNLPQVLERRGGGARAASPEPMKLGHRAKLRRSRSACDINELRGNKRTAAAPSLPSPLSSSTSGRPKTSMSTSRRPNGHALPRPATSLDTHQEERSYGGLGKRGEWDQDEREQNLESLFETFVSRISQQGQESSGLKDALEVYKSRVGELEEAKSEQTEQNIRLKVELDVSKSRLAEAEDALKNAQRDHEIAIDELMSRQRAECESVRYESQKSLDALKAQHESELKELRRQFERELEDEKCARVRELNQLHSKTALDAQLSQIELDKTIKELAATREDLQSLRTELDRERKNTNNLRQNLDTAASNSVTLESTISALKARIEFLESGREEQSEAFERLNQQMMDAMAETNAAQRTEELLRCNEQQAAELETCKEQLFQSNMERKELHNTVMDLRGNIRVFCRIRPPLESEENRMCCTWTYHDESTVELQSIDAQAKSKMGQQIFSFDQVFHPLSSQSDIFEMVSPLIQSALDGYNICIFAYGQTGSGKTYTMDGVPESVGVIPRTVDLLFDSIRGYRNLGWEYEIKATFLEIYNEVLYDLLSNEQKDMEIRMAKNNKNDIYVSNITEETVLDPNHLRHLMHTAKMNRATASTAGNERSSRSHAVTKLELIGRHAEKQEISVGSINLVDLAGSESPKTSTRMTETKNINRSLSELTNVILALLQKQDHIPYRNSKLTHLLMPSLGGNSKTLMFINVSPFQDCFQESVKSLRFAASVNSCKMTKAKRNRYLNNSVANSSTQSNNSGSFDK

[3] = molecular target: T3, GFP-KlpA*Ncd-#1 (Aspergillus nidulans | Drosophila melanogaster) (UniProt P28739)
T3 sequence: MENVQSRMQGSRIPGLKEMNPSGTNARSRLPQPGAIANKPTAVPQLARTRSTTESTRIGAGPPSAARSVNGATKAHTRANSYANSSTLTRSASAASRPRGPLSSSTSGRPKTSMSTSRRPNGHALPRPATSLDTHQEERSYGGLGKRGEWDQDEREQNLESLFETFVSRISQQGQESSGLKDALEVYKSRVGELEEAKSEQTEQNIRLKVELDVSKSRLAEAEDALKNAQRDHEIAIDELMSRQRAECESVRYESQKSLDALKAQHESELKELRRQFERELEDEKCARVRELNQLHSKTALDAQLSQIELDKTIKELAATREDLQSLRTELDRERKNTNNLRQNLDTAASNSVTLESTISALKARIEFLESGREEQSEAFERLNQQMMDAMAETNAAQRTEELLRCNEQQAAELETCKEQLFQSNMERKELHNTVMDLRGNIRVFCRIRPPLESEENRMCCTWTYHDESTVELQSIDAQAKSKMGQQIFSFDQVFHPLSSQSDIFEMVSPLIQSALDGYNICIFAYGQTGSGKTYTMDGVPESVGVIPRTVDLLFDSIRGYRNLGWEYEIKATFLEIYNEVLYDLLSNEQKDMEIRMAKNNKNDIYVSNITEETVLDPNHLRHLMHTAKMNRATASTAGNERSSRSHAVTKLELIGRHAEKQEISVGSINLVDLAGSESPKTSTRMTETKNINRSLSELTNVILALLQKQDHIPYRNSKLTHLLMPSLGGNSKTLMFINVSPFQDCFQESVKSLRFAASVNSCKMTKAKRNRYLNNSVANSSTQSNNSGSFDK

[4] = molecular target: T4, GFP-KlpA (Aspergillus nidulans) (UniProt P28739)
T4 sequence: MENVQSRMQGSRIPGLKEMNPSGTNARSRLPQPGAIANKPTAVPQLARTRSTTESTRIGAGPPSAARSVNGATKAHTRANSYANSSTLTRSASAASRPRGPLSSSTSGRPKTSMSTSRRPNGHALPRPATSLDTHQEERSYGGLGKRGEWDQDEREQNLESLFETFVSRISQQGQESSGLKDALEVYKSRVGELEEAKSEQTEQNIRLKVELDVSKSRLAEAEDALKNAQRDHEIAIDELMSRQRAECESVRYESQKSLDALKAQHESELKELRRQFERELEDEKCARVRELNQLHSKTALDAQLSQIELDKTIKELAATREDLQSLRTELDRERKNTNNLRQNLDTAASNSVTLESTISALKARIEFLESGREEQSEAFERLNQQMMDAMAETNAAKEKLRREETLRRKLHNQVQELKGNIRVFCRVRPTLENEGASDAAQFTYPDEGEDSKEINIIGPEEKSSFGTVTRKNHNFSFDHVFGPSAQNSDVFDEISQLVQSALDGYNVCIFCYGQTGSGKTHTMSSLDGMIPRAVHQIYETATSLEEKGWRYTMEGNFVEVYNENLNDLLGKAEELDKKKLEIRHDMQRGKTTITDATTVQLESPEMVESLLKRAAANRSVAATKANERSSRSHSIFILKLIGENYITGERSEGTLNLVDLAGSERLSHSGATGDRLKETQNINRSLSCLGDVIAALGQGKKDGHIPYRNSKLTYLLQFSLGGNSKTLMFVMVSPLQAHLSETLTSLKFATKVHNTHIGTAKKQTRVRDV

TinA-mCherry (A. nidulans) was tested, and the binding [1] was “no binding”, the binding [2] was “binds” and the binding [3] was “binds”.

With “TinAΔC1-mCherry (A. nidulans) (domain or fragment)” the binding [4] was “binds”.
